Laboratory results: paper PMC12561916
These are yes or no findings as the source states them, for the method shown. In cells and extracts the contact can be indirect. Some binding calls cover weakened binding; strength is not graded here.

Protein sequences, listed by entry. Tags and fused reporters are not part of them.
UniProt O00264: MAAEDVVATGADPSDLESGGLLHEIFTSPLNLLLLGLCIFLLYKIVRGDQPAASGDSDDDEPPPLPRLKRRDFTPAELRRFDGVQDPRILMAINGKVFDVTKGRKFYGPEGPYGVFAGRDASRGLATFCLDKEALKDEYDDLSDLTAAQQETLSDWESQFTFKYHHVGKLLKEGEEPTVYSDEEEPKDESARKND
UniProt P08670: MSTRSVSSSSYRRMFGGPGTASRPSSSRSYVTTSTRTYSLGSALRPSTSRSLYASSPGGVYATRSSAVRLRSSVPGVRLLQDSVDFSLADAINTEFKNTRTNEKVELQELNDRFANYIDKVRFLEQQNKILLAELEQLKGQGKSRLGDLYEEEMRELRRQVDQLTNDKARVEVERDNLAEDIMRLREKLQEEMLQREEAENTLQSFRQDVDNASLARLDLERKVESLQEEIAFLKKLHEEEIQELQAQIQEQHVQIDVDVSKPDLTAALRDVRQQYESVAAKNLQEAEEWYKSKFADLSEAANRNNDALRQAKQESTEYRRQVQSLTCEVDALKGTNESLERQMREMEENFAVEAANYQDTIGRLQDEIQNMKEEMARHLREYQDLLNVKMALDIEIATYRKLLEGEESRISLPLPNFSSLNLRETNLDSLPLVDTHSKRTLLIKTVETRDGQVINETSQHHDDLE

Experiments:
[1] = biological target: FLAG-tagged PGRMC1 (progesterone receptor membrane component 1) (human) (UniProt O00264); assay: co-IP; HEK293T co-transfected with FLAG-PGRMC1 and HA-tagged VIM or truncated fractions for 48 h; lysed in RIPA buffer with protease and phosphatase inhibitors; anti-[…] (Flag) affinity gel overnight at 4 °C; blot with HA antibody
[2] = biological target: FLAG-tagged PGRMC1 (progesterone receptor membrane component 1) (human) (UniProt O00264); assay: co-IP; 293T cells transfected with FLAG-PGRMC1 plasmid for 48 h; IP with anti-FLAG antibody or IgG control; blots for VIM and SPTBN1

Row | binding [1] | binding [2] | Substance
1 | binds |  | HA-tagged VIM, full length (from UniProt P08670 1-466)
2 |  | binds | Vimentin (VIM), endogenous in HEK293T (from UniProt P08670 1-466)
